{"source": "PubChem BioAssay AID504793 (Drosophila RNAi Screening Center, 2011)", "aim": "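Genes required for cells to halt at G2/M after double-strand DNA breaks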 (primary screen)", "cells": "Drosophila S2R+ cells", "reagent": "long dsRNA against Drosophila genes, about 0.25 µg dsRNA per well", "timing": "4 days of dsRNA, then 4 hours of drug before read-out", "challenge": "doxorubicin 0.5 µM for 4 hours to cause double-strand breaks, in cells also given a low, harmless dose of dsRNA against nbs to sensitise the assay", "read-out": "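Per-well count of mitotic cells stained for phospho-histone H3 after doxorubicin exposure, used as mitotic index; counts are raw and not normalised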", "direction": "mitotic cells: higher = more cells in mitosis, weaker G2 arrest", "call rule": "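Genes are called active only when high mitotic counts were reproduced with independent dsRNAs and mitosis was checked for delay without damage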", "calls": "active = confirmed in follow-up tests; inactive = not confirmed", "note": "In all, the deposit lists about 23,000 reagents; below is a random part of those that have a named target and a result. Of all reagents, 62 (0.27%) are marked active. 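Calls come from follow-up tests whose scores are not deposited, so confirmed genes may have low counts here; counts are not normalised per plate.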 The raw values are shown without normalisation."}
{"gene knocked down": "Art1 (Arginine methyltransferase 1)", "DRSC id": "DRSC16063", "mitotic cells, replicate 1": 4, "Outcome": "inactive"}
{"gene knocked down": "CG11560", "DRSC id": "DRSC09843", "mitotic cells, replicate 1": 10, "Outcome": "inactive"}
{"gene knocked down": "CG11560", "DRSC id": "DRSC27017", "mitotic cells, replicate 1": 3, "Outcome": "inactive"}
{"gene knocked down": "CG13722", "DRSC id": "DRSC08331", "mitotic cells, replicate 1": 5, "Outcome": "inactive"}
{"gene knocked down": "CG13722", "DRSC id": "DRSC21616", "mitotic cells, replicate 1": 10, "Outcome": "inactive"}
{"gene knocked down": "CG13722", "DRSC id": "DRSC24663", "mitotic cells, replicate 1": 4, "Outcome": "inactive"}

Laid out differently: entries from further up.
gene knocked down,DRSC id,"mitotic cells, replicate 1",Outcome
CG11560,DRSC27017,3,inactive
CG13722,DRSC08331,5,inactive

The listing continues:
{"gene knocked down": "CG12241", "DRSC id": "DRSC14481", "mitotic cells, replicate 1": 7, "Outcome": "inactive"}
{"gene knocked down": "CG12241", "DRSC id": "DRSC26642", "mitotic cells, replicate 1": 8, "Outcome": "inactive"}
{"gene knocked down": "Hr78 (Hormone-receptor-like in 78)", "DRSC id": "DRSC11866", "mitotic cells, replicate 1": 4, "Outcome": "inactive"}
{"gene knocked down": "Hr78 (Hormone-receptor-like in 78)", "DRSC id": "DRSC27893", "mitotic cells, replicate 1": 4, "Outcome": "inactive"}
{"gene knocked down": "CG31624", "DRSC id": "DRSC02617", "mitotic cells, replicate 1": 13, "Outcome": "inactive"}
{"gene knocked down": "Smurf (SMAD specific E3 ubiquitin protein ligase)", "DRSC id": "DRSC07641", "mitotic cells, replicate 1": 2, "Outcome": "inactive"}
{"gene knocked down": "Smurf (SMAD specific E3 ubiquitin protein ligase)", "DRSC id": "DRSC29832", "Outcome": "inactive"}
{"gene knocked down": "Cont (Contactin)", "DRSC id": "DRSC12149", "mitotic cells, replicate 1": 7, "Outcome": "inactive"}
